# Source: PubChem BioAssay AID1671190 (National Center for Advancing Translational Sciences (NCATS), 2021)
# By UniProt entry, the sequences of proteins in these tests, tags left out. Where a name states a change or a piece, a line headed by the entry shows the natural chain unless it says otherwise.
# UniProt P18054: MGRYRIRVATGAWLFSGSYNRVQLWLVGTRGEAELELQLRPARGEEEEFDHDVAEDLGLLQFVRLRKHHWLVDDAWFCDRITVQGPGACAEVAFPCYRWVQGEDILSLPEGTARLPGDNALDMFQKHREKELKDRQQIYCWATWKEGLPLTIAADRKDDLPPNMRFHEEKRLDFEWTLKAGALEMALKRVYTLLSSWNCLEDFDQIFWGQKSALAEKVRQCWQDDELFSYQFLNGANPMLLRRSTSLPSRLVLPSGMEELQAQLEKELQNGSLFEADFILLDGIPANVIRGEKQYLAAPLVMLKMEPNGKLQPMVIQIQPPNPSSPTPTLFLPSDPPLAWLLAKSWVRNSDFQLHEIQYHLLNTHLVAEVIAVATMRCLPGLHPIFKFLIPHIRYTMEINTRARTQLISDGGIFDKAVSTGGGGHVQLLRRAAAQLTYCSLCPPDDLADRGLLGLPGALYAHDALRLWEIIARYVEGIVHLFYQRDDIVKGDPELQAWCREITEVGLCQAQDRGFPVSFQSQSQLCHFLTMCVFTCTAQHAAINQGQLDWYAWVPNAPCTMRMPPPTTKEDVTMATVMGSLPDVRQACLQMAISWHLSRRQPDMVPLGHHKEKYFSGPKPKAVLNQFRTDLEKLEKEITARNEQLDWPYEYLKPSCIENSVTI
# Hit rate of the full screen: of about 580,000 compounds, about 6,100 (1.1%) were called active. Inconclusive means that the source gave no clear call. Such entries were picked first, then a sample of the others. The call rests on the fitted dose curve; in most records, active means well fitted inhibition curve with a large enough effect; inconclusive means small, poorly fitted or top-dose-only effect, or another doubt; inactive means no such curve, though single readings can be large or run the other way. A potency beside an inconclusive call is a rough fit, not a confirmed value.
# Target: Polyunsaturated fatty acid lipoxygenase ALOX12 (Homo sapiens) (UniProt P18054)
# Assay: Primary qHTS assay for inhibitors of human arachidonate 12S-lipoxygenase (ALOX12): Round 2
# Conditions: purified 12hLO, xylenol orange hydroperoxide absorbance; series mostly up to 108 µM
# Outline: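 Purified human 12hLO (150 nM final) in 25 mM Hepes, 0.01% Triton X-100, pH 7.0 was preincubated 15 min at room temperature with compound. Then 40 uM arachidonic acid was added, 30 min. Hydroperoxide was read by Fe-XO absorbance ratio 573/405 nm.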
# Potency means the concentration at half of the fitted maximal effect.
row,SMILES,Potency
1,Cc1cccc(-c2noc([C@@H]3Cc4nc[nH]c4CN3)n2)c1,inactive
2,CCCC1S/C(=N/N=C/c2ccc(OC)cc2)N(Cc2ccccc2)C1=O (stereo unspecified),inactive
3,Cc1cc(C(=O)NC(C)c2cccc(C(F)(F)F)c2)c(C)o1 (stereo unspecified),"inconclusive: 39.8 µM [inhibitor, partial curve, poor fit]"
4,Cc1cc(C)n(-c2nc3ccccc3nc2NCc2ccc(F)cc2)n1,inactive
5,COc1ccc(CN2C(=O)C(n3c(C)ccc3C)c3cc(OC)ccc32)cc1 (stereo unspecified),"inconclusive: 35.5 µM [inhibitor, partial curve]"
6,COC(=O)c1c(NC(=O)c2ccc(S(=O)(=O)N3CCCCC3)cc2)sc2c1CCN(C)C2,"inconclusive: 56.2 µM [inhibitor, partial curve, poor fit]"
7,CCNC(=O)CN1CCCN(C(=O)CCCc2c[nH]c3ccccc23)CC1,inactive
8,O=C(CC(=O)Nc1ccc(Cl)cc1)N/N=C\c1cccc(F)c1,"inconclusive: 126 µM [inhibitor, single point]"
9,N#C/C(=C\c1ccc(O)c(O)c1)C(=O)N1CCCC1,"inconclusive: 3.98 µM [inhibitor, full curve]"
10,S=c1[nH]nc(-c2ccccc2Cl)n1/N=C/C=C/c1ccco1,"inconclusive: 126 µM [inhibitor, partial curve, poor fit]"
11,COc1cc(F)ccc1-c1cc(-c2cn[nH]c2)c2cncn2c1,"inconclusive: 39.8 µM [inhibitor, full curve]"
12,CCc1cccc2c(C(CC(=O)NC(C)CC)c3ccc(OC)c(OC)c3)c[nH]c12 (stereo unspecified),inactive
13,CCC(=O)N1CCC(CC)(N2CCN(S(=O)(=O)c3cc(Cl)ccc3OC)CC2)C1 (stereo unspecified),"inconclusive: 15.8 µM [inhibitor, full curve, poor fit]"
14,Cc1ccc(C(C(=O)NC2CCCC2)N(Cc2ccco2)C(=O)CCC(=O)Nc2cc(C)on2)cc1 (stereo unspecified),"inconclusive: 112 µM [inhibitor, single point]"
15,O=C(CN1C(=O)c2ccccc2S1(=O)=O)NCCSCc1ccccc1Cl,"inconclusive: 39.8 µM [inhibitor, partial curve, poor fit]"
16,CC(=O)N(C)C1(c2ccccc2)CCN(CCC[C@]2(c3ccc(Cl)c(Cl)c3)CCCN(C(=O)c3ccccc3)C2)CC1,inactive
17,O=C(c1cccc(S(=O)(=O)Nc2ccc(Br)cc2)c1)N1CCC1,"inconclusive: 39.8 µM [inhibitor, single point]"
18,Cc1ccc2c(CN3CCOCC3)cc(=O)oc2c1C,"inconclusive: 25.1 µM [inhibitor, full curve, poor fit]"
19,O=C(CNc1ccccc1SC(F)F)N1CCNC1=O,"inconclusive: 56.2 µM [inhibitor, partial curve, poor fit]"
20,CC(NC(=O)Cc1c[nH]c2ccccc12)c1ccco1 (stereo unspecified),inactive
21,CCC(=O)Oc1ccc(C(=O)Nc2ccc(-c3nc4cc(C)ccc4o3)cc2)cc1,inactive

# Two compounds drawn at random from those above:
row,SMILES,Potency
6,COC(=O)c1c(NC(=O)c2ccc(S(=O)(=O)N3CCCCC3)cc2)sc2c1CCN(C)C2,"inconclusive: 56.2 µM [inhibitor, partial curve, poor fit]"
14,Cc1ccc(C(C(=O)NC2CCCC2)N(Cc2ccco2)C(=O)CCC(=O)Nc2cc(C)on2)cc1 (stereo unspecified),"inconclusive: 112 µM [inhibitor, single point]"

# Additional results:

row,SMILES,Potency
1,CNc1cnc(-c2ccc(F)c(F)c2F)cn1,"inconclusive: 112 µM [inhibitor, single point]"
2,CCOC(=O)c1[nH]c(C)c(C(=O)N2CCN(c3ccc(OC)cc3)CC2)c1C,inactive
3,CCOC(=O)CSc1nc(-c2ccc(OC)cc2)ns1,"inconclusive: 39.8 µM [inhibitor, partial curve, poor fit]"
4,O=[N+]([O-])c1cccc(N/N=C/c2ccc3ncccc3c2)c1,"inconclusive: 126 µM [inhibitor, single point]"
5,CCn1cc2nc(SCc3cccc(C(F)(F)F)c3)n(CCc3ccccc3)c(=O)c2n1,inactive
6,Cc1cc(N)n(-c2ccc(Oc3ccccc3)c(S(=O)(=O)O)c2)n1,"inconclusive: 44.7 µM [inhibitor, partial curve, poor fit]"
7,COc1ccc(F)cc1C(=O)C1CCCN(Cc2ccc(Sc3nncn3C)o2)C1 (stereo unspecified),"inconclusive: 7.94 µM [inhibitor, full curve, poor fit]"
8,CCSc1oc(-c2cccs2)nc1S(=O)(=O)c1ccccc1,"inconclusive: 35.5 µM [inhibitor, full curve, poor fit]"
9,CCN1CCN(c2nc3c(C)cccn3c(=O)c2/C=C(\C#N)C(=O)NCCCOC)CC1,"inconclusive: 44.7 µM [inhibitor, partial curve, poor fit]"
10,Cc1cc(O)c(C)c(C)c1O,"inconclusive: 25.1 µM [inhibitor, partial curve, poor fit]"
11,Cc1nc(-c2ccccc2)sc1-c1n[nH]c(=S)n1C,"inconclusive: 70.8 µM [inhibitor, partial curve, poor fit]"
12,Cc1cc(-c2n[nH]c(=S)n2/N=C/c2ccco2)n[nH]1,"inconclusive: 31.6 µM [inhibitor, partial curve, poor fit]"
13,CCOc1cccc(-c2cc(C(=O)O)c3ccc(C)c(C)c3n2)c1,active: 39.8 µM
14,CC(C)=CCc1c(O)ccc(C(=O)Cc2ccccc2)c1O,"inconclusive: 44.7 µM [inhibitor, partial curve, poor fit]"
15,COC(=O)CCNC(=O)Cc1c(C)n(C(=O)c2ccc(Cl)cc2)c2ccc(OC)cc12,"inconclusive: 89.1 µM [inhibitor, partial curve, poor fit]"
16,O=C(Cc1n[nH]c(=O)c2ccccc12)Nc1cccc(S(=O)(=O)Nc2cccc(Cl)c2)c1,"inconclusive: 79.4 µM [inhibitor, partial curve, poor fit]"
17,CCN1CCN(CC(O)COC(c2ccccc2)c2ccccc2C)CC1 (stereo unspecified),"inconclusive: 17.8 µM [inhibitor, partial curve, poor fit]"
18,CC(C)(C)CC(C)(C)NC(=O)c1ccc(C#N)cc1,"inconclusive: 112 µM [inhibitor, single point]"
19,CCN1C(=C2C(=O)c3ccccc3C2=O)C=Cc2ccccc21,"inconclusive: 56.2 µM [inhibitor, partial curve, poor fit]"
20,CN1CCN(c2cc(C(F)(F)F)nc(-c3ccccn3)n2)CC1,"inconclusive: 0.501 µM [inhibitor, full curve]"
